{"sequences": {"note": "By UniProt entry, the sequences of proteins in these tests, tags left out. Where a name states a change or a piece, a line headed by the entry shows the natural chain unless it says otherwise.", "UniProt P14859": "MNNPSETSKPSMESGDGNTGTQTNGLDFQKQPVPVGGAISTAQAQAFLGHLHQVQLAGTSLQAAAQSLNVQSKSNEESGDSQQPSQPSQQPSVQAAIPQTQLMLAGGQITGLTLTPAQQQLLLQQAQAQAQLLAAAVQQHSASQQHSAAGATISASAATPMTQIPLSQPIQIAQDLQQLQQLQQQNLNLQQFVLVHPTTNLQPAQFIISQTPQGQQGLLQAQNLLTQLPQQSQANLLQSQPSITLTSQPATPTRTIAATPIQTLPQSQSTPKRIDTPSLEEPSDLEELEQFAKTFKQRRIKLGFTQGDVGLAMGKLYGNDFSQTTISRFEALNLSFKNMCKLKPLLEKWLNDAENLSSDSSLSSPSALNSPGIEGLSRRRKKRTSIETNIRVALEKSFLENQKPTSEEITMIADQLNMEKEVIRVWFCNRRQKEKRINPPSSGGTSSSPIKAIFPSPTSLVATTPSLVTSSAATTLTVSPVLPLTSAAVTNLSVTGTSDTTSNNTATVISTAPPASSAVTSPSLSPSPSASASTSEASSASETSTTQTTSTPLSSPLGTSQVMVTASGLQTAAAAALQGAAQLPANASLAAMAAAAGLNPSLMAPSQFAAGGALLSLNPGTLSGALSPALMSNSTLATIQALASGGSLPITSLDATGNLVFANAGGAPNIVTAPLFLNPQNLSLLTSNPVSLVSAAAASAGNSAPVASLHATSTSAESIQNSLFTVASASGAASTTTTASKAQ", "UniProt P09086": "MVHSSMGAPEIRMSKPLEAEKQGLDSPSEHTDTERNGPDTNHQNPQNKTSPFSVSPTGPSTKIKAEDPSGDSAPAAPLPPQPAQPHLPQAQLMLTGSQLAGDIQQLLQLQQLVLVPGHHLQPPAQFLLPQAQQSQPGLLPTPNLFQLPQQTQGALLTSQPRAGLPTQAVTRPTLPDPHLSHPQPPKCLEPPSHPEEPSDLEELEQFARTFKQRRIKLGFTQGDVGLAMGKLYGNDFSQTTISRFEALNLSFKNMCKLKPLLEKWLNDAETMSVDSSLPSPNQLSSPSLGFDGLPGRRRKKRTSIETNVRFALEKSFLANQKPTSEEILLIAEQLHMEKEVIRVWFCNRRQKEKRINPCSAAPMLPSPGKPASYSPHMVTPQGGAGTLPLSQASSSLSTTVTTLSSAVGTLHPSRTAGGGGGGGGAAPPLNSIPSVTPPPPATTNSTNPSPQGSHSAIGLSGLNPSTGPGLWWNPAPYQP"}, "source": "paper PMC10812921", "key": {"[1]": {"molecular_target": "tagged DNA-binding POU domain of human OCT1 (POU1) (human) (UniProt P14859)", "experiment": "native gel or EMSA; ternary complex of POU domain, BOB1 and fluorescein-labelled double-stranded oligonucleotide (PORE^D in Figure 1; octamer variants in the Vk promoter context in Figure 4); 20 mM Tris-HCl pH 7.6, 10% glycerol, 0.14 M NaCl, 0.5 mM EDTA, 0.05% Triton X-100, 0.1 mg/mL BSA, 0.1 mg/mL poly[dI-dC], 5 mM DTT; 20 min at RT; native 6% PAGE in 0.5x TBE; both purified"}, "[2]": {"molecular_target": "tagged DNA-binding POU domain of human OCT2 (POU2) (human) (UniProt P09086)", "experiment": "native gel or EMSA; ternary complex of POU domain, BOB1 and fluorescein-labelled double-stranded oligonucleotide (PORE^D in Figure 1; octamer variants in the Vk promoter context in Figure 4); 20 mM Tris-HCl pH 7.6, 10% glycerol, 0.14 M NaCl, 0.5 mM EDTA, 0.05% Triton X-100, 0.1 mg/mL BSA, 0.1 mg/mL poly[dI-dC], 5 mM DTT; 20 min at RT; native 6% PAGE in 0.5x TBE; both purified"}}, "note": "Results are given in words; binding and its absence hold for the method and conditions named. A result given as binding can be weak or reduced; the word gives no strength. Where a sequence is shown, tags or fusion partners need not be part of it.", "data": [{"binder": "full-length human BOB1 protein, double-tagged (protein, UniProt Q16633 1-256) MLWQKPTAPEQAPAPARPYQGVRVKEPVKELLRRKRGHASSGAAPAPTAVVLPHQPLATYTTVGPSCLDMEGSVSAVTEEAALCAGWLSQPTPATLQPLAPWTPYTEYVPHEAVSCPYSADMYVQPVCPSYTVVGPSSVLTYASPPLITNVTTRSSATPAVGPPLEGPEHQAPLTYFPWPQPLSTLPTSTLQYQPPAPALPGPQFVQLPISIPEPVLQDMEDPRRAASSLTIDKLLLEEEDSDAYALNHTLSVEGF", "values": [{"measurement": "binding", "setting": "[1]", "value": "binds"}, {"measurement": "binding", "setting": "[2]", "value": "binds"}]}]}
